Record: PubChem BioAssay AID686937 (Drosophila RNAi Screening Center, 2013)
Purpose: 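Genes whose loss weakens secretory pathway function in fly cells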 (primary screen). Cells: Drosophila S2 cells expressing secreted horseradish peroxidase. Reagent: long dsRNA against Drosophila genes. Time to read-out: about 5.5 days (5 days dsRNA, then 12 h reporter induction). Treatment: reporter expression induced after 5 days of dsRNA, read 12 h later; inducer not stated. Measurement: 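After 5 days of dsRNA and 12 h of reporter induction, medium peroxidase read by chemiluminescence and scored as per-plate z-score; higher values mean more reporter released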. Direction: z-score: higher = more reporter secreted into medium.
The deposit covers about 23,000 reagents; below is an unselected part of those with a known target gene and a result. 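Reduced-secretion tags in replicate 1 do not always agree with the z-scores; no criterion for assigning the tags was given.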 The numbers tell different reagents against one gene apart. Further read-outs or replicates are left out here. No sequences are given here. Not given: the amount of reagent.

predicted target | dsRNA no. | z-score, replicate 1 | z-score, replicate 2
ru | 1 | 0.18 | 0.28
MAGE | 1 | 0.1 | 0.29
rho-5 | 1 | 0.14 | 0.25
CG33170 | 1 | 0.44 | 0.41
CG33170 | 2 | 0.02 | 0.05
p47 | 1 | -0.73 | -0.71
CG9951 | 1 | 0.14 | 0.29
laza | 1 | 0.1 | 0
CG8892 | 1 | 0.2 | 0.27
Skadu | 1 | -1.45 | 0.21
CR42548 | 1 | -0.13 | -0.01
CG3919 | 1 | 0.44 | 0.48
RpS13 | 1 | -2.65 | -4.36
RpL36A | 1 | -1.76 | -4.12
tra | 1 | 0.26 | 0.13
CG33523 | 1 | 0.12 | 0.29
CG33523 | 2 | -1.05 | -0.03
CG1138 | 1 | 0.2 | 0.37
Syx17 | 1 | 0.49 | 0.27
Ir7g | 1 | 0.35 | 0.52
CG32243 | 1 | 0.35 | -0.01
CG31926 | 1 | 0.35 | 0.16
CG33339 | 1 | -0.27 | -0.26
CG14300 | 1 | 0.35 | 0.58
AdamTS-A | 1 | 0.1 | 0.05
AdamTS-A | 2 | 0.34 | 0.45
CG14402 | 1 | 0.43 | 0.31
Srx | 1 | 0.04 | 0.17
CG31937 | 1 | 0.4 | 0.21
Idh3g | 1 | 0.21 | 0.32
CG3511 | 1 | 0.17 | 0.19
CG42812 | 1 | 0.16 | 0.16
mRpS18C | 1 | 0.02 | -0.07
CG8149 | 1 | 0.32 | 0.13
pic | 1 | -0.46 | -1.34
CG7149 | 1 | 0.33 | 0.21
thetaTry | 1 | 0.22 | 0.19
lectin-33A | 1 | 0.14 | 0.28
lectin-33A | 2 | -1.26 | 0.28
CG33673 | 1 | 0.44 | 0.4
CG15083 | 1 | 0.19 | 0.26
mthl3 | 1 | 0.12 | 0.16
Obp85a | 1 | 0.33 | -0.02
PolA2 | 1 | 0.02 | 0.23
sunn | 1 | 0.6 | 0.25
CG43386 | 1 | 0.33 | 0.13
nullo | 1 | 0.22 | 0.34
CG13086 | 1 | 0.55 | 0.54
Mvl | 1 | 0.29 | 0.39
hppy | 1 | 0.27 | 0.22
hppy | 2 | 0.44 | 0.51
hppy | 3 | 0.18 | 0.35
Gr36a | 1 | -0.87 | 0.26
CG7786 | 1 | 0.36 | 0.07
Teh4 | 1 | 0.54 | 0.39
jtb | 1 | 0.28 | 0.22
Ent1 | 1 | 0.2 | 0.5
CG31279 | 1 | -0.5 | 0.14
CG32053 | 1 | 0.29 | 0.33
aust | 1 | 0.27 | 0.07
barr | 1 | -0.6 | -0.95
Pvf2 | 1 | -1.39 | -1.23
Pvf2 | 2 | -0.85 | -0.23
CG10657 | 1 | -2.79 | 0.38
CG7341 | 1 | 0.42 | 0.28
Irk3 | 1 | 0.49 | 0.55
CG5151 | 1 | -0.71 | -0.48
CG16743 | 1 | -0.29 | 0.04
CG15073 | 1 | 0.32 | 0.24
CG30284 | 1 | -1.29 | 0.3
CG14322 | 1 | 0.5 | 0.36
CkIIalpha-i3 | 1 | 0.02 | 0.07
Mst77F | 1 | 0.33 | 0.44
CG11334 | 1 | 0.44 | 0.07
CG11334 | 2 | 0.55 | 0.39
repo | 1 | 0.04 | 0.24
Kpc2 | 1 | 0.52 | 0.27
CG12964 | 1 | -0.58 | -0.5
Pde8 | 1 | 0.15 | 0.11
HnRNP-K | 1 | 0.28 | -0.03
HnRNP-K | 2 | 0.33 | 0.46
CG15717 | 1 | 0.38 | 0.56

An excerpt taken from the entries so far, for reference:
predicted target | dsRNA no. | z-score, replicate 1 | z-score, replicate 2
CkIIalpha-i3 | 1 | 0.02 | 0.07
Mst77F | 1 | 0.33 | 0.44
CG11334 | 1 | 0.44 | 0.07
CG11334 | 2 | 0.55 | 0.39
repo | 1 | 0.04 | 0.24
Kpc2 | 1 | 0.52 | 0.27
CG12964 | 1 | -0.58 | -0.5
Pde8 | 1 | 0.15 | 0.11
HnRNP-K | 1 | 0.28 | -0.03
HnRNP-K | 2 | 0.33 | 0.46
